Measured values: the supplement of paper PMC10849652
The list shows a part of the results.

Sequences of proteins named here, by UniProt entry; tags and fusion partners are left off. A change or cut given only in a name is not applied to a line headed by its entry.
UniProt Q9BSF0: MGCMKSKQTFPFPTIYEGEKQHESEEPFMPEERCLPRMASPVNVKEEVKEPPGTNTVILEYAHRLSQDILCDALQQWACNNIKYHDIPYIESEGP
UniProt Q6PH81: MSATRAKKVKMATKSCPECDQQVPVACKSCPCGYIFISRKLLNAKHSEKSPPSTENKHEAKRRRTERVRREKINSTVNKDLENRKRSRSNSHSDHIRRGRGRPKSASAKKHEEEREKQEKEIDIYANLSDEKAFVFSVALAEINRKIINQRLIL
UniProt Q96MD7: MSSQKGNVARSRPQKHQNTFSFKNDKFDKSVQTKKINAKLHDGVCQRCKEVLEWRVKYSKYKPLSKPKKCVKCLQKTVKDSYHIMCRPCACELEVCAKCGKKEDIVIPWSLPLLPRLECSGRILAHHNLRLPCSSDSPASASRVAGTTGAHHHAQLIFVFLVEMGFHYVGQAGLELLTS
UniProt Q9H6X5: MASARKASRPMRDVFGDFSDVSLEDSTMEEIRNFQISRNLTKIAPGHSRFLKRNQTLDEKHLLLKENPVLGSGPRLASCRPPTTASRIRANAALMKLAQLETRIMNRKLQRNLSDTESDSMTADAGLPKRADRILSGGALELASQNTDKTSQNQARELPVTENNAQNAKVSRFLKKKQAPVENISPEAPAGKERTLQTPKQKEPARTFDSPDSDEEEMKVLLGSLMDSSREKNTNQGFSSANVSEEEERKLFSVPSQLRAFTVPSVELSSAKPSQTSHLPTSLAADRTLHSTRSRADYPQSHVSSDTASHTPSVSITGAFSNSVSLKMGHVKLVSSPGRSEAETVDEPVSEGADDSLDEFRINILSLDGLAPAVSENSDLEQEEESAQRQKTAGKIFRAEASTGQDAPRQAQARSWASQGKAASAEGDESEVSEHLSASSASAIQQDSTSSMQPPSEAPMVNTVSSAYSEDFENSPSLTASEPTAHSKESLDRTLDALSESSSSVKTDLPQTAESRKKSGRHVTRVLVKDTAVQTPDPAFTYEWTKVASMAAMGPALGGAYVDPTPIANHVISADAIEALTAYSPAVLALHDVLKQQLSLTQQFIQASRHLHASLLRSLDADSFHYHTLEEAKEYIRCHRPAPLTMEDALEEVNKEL
UniProt Q8IYL3: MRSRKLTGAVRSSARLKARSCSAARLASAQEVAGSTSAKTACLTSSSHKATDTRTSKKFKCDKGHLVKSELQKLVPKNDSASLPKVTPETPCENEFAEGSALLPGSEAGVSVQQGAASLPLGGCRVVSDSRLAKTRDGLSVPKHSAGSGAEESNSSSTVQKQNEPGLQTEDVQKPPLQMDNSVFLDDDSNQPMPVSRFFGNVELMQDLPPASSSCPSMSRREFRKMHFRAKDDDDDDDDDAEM
UniProt P0DMB2: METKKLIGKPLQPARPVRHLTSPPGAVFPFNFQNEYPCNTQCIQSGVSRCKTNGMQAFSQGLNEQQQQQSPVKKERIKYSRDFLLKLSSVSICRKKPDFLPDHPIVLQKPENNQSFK
UniProt Q9NX04: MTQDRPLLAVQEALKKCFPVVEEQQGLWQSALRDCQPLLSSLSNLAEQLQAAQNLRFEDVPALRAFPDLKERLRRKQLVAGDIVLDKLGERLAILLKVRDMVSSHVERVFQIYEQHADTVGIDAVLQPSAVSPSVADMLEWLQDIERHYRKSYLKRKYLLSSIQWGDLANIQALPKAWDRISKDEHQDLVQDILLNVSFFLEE
UniProt Q01518, whole entry, looked up: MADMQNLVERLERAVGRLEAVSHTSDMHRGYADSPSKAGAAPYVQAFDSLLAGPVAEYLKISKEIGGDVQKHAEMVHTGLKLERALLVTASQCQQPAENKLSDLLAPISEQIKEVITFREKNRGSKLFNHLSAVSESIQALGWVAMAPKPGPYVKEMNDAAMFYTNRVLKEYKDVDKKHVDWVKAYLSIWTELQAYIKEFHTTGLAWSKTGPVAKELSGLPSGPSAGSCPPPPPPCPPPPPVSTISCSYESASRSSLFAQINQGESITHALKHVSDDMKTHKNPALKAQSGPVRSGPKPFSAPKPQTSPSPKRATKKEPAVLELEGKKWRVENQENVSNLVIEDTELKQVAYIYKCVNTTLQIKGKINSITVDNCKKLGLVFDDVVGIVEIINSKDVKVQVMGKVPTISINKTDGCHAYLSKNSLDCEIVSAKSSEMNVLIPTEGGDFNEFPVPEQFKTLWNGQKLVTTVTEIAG
UniProt Q96L46: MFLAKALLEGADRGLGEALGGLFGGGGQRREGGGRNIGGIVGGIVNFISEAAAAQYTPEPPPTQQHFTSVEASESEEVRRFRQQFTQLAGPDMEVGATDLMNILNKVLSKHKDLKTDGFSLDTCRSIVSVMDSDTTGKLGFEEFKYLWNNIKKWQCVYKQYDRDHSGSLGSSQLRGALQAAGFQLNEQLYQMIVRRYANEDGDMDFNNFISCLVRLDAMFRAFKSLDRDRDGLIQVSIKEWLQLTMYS
UniProt A1L170: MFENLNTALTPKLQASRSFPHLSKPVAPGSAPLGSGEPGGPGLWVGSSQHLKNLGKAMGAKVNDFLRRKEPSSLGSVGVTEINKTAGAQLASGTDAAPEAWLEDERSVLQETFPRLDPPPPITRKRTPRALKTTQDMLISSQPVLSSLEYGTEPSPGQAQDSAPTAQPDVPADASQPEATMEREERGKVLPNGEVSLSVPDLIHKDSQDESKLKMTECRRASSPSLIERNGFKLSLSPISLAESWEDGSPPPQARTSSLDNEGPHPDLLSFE
UniProt Q9NSK7: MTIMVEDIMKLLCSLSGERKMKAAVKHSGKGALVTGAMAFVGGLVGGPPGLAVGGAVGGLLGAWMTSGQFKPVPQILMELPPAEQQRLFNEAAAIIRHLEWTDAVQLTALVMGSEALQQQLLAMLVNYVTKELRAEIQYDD
UniProt Q504U0: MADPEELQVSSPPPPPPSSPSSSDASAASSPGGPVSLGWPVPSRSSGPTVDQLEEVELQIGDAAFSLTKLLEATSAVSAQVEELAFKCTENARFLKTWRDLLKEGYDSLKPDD
UniProt Q6P5X5: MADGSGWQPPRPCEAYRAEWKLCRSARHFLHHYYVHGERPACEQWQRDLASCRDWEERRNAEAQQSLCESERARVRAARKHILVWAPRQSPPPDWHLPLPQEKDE
UniProt Q96F05: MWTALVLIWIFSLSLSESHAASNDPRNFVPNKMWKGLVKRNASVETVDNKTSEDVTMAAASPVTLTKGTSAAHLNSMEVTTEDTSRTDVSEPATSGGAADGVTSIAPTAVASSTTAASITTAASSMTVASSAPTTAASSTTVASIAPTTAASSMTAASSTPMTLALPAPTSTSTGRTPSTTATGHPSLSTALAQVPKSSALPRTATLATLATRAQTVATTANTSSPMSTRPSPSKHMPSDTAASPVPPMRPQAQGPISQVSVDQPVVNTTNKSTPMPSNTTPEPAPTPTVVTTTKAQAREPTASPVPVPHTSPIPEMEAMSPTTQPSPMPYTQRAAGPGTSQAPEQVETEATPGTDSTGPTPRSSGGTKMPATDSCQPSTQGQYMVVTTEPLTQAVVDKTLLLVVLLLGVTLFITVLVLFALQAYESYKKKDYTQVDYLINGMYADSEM
UniProt Q3KRA6: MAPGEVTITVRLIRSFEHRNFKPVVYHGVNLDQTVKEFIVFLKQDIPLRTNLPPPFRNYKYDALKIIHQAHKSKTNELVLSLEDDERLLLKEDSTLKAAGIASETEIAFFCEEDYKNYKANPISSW
UniProt Q32NC0: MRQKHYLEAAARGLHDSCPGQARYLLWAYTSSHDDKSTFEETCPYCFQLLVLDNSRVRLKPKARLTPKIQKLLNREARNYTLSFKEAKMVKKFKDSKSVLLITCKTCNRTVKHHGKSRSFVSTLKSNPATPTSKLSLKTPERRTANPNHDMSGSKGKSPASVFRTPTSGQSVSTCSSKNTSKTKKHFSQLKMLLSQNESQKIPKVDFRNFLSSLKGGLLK
UniProt Q9BVC5: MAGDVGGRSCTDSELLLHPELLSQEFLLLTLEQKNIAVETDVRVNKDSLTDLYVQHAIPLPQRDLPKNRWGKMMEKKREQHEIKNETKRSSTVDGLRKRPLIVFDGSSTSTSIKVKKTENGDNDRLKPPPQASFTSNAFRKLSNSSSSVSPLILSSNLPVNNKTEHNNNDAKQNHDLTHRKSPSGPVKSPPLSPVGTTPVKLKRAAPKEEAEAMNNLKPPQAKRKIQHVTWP
UniProt Q7Z7L8: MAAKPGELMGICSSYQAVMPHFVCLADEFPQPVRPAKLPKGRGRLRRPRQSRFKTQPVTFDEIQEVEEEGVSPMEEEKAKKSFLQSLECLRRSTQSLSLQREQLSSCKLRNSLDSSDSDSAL

These targets were tested with C1COCCN1CCN2C3=CC=CC=C3N=C2NC(=O)C4=CC(=CC=C4)[N+](=O)[O-] [IRAK-1-4 Inhibitor I] (assay: log2 fold change, soluble protein after heating vs DMSO (PISA); higher = thermal stabilisation; K562 lysate, 10 uM; active = over 0.2 and 3.5 SD of the protein, either way, in both replicates (recomputed)).
In short: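 The values are log-two fold changes in thermal stability compared with solvent controls and come from duplicates. They were obtained by TMTpro 16plex LC-MS/MS, with channel sums equalised, on the supernatant after 21,000xg for 90 min. That supernatant came from crude K562 extract at 1 mg/mL protein treated with 10 μM compound for 30 min, heated for 3 min across 48°C-58°C, pooled and brought to 0.5% NP-40 at 4°C.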

log2 fold change, inactive:
C2orf88 (UniProt Q9BSF0) 0.108
C16orf87 (UniProt Q6PH81) -0.14
C9orf85 isoform 1 (UniProt Q96MD7) 0.021
C19orf44 (UniProt Q9H6X5) 0.149
C12orf73 (UniProt Q69YU5) 0.094
C1orf174 (UniProt Q8IYL3) 0.224
C8orf88 (UniProt P0DMB2) -0.013
C1orf109 (UniProt Q9NX04) -0.073
CAPN1 (UniProt E9PLX0) -0.067
CAP1 isoform 2 (UniProt Q01518) 0.112
CAPNS2 (UniProt Q96L46) 0.155
C1orf226 isoform 2 (UniProt A1L170) -0.034
C19orf12 (UniProt Q9NSK7) 0.003
C4orf46 (UniProt Q504U0) -0.021
C22orf39 (UniProt Q6P5X5) 0.018
C11orf24 (UniProt Q96F05) -0.029
C2orf76 (UniProt Q3KRA6) 0.001
C18orf21 (UniProt Q32NC0) -0.061
C2orf49 isoform 2 (UniProt Q9BVC5) -0.113
CAMKMT (UniProt Q7Z624) 0.054
C11orf96 (UniProt Q7Z7L8) -0.046

Not a retest: an excerpt of the list.
log2 fold change, inactive:
C1orf226 isoform 2 (UniProt A1L170) -0.034
C19orf12 (UniProt Q9NSK7) 0.003
